According to US7390873B2 (University of British Columbia, priority 1995, dated 2008):
Where a sequence shows no end group, the ends are not given. Strings that start with PEPTIDE1 are HELM notation: dots part the residues, brackets hold end groups and non-standard residues.

assay: general procedure: peptide synthesis; copoly(styrene-divinylbenzene) containing 0.1-1.0 mMol amines/g polymer; conditions: whole synthesis

Substance | purity (crude or final not stated)
ILKPWKWPWWPWRRKK | approximately 80% pure
ILPWKWPWWPWRR | at least 99% pure
PEPTIDE1{I.L.K.K.W.P.W.W.P.W.K.W.K.K}$$$$V2.0 | at least 99% pure
PEPTIDE1{I.L.K.K.W.P.W.W.P.W.R.R.K}$$$$V2.0 | at least 99% pure
